Results on six molecules are retold here after paper PMC6508832.

By UniProt entry, the sequences of proteins in these tests, tags left out. Where a name states a change or a piece, a line headed by the entry shows the natural chain unless it says otherwise. Residues count along the entry.
UniProt Q9FI56, residues 39-929: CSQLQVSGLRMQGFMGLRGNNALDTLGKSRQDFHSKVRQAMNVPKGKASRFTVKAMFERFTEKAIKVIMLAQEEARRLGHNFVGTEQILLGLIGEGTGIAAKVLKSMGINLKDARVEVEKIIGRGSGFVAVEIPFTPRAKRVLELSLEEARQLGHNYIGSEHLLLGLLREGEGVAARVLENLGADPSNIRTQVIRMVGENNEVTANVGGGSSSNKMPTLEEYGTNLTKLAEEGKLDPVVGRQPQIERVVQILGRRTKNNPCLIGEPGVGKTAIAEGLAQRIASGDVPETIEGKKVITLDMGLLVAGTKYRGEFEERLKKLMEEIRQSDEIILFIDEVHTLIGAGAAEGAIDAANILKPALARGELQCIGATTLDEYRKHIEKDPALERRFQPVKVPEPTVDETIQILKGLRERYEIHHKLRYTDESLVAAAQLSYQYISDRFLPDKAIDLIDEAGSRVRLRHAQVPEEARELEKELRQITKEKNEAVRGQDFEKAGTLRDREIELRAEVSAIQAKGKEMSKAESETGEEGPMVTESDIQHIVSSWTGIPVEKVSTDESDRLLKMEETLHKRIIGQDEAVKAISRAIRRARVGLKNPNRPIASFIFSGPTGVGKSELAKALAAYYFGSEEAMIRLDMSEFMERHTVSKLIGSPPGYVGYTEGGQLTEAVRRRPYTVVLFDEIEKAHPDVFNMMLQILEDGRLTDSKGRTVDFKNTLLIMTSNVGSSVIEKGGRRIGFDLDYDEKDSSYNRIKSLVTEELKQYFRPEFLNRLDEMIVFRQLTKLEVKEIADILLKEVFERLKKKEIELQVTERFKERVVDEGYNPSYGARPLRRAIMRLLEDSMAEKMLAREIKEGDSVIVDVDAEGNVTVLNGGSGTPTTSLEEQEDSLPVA
UniProt Q9STW6: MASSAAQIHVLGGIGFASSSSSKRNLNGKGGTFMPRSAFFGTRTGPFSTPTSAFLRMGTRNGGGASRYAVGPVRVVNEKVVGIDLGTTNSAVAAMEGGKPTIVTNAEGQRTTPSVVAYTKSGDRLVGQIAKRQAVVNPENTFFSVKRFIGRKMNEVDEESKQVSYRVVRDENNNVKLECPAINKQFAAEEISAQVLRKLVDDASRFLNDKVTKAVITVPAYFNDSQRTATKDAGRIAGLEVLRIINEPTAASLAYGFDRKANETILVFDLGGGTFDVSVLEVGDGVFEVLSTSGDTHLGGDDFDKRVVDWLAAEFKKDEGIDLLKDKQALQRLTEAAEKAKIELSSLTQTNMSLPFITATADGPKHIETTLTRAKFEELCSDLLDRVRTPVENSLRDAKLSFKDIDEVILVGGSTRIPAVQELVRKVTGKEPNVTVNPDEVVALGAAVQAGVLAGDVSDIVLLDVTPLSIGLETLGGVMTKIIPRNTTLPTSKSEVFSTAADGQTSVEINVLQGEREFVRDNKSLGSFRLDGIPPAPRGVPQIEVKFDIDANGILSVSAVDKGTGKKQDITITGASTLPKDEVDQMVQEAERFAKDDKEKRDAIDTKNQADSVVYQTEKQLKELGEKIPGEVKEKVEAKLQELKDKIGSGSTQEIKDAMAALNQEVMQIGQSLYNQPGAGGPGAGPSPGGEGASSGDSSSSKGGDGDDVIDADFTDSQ

Experiment [1] concerns the target T1, CLPP3S164A‐STREPII (Arabidopsis) (UniProt Q9SXJ6).
T1 sequence: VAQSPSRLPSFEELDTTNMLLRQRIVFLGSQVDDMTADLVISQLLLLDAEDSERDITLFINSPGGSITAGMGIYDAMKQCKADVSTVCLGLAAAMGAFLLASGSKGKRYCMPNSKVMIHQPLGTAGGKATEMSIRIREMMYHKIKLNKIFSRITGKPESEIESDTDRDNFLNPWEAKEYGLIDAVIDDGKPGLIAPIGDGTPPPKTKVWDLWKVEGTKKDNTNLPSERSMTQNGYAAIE
In words: affinity purification with mass spectrometry; StrepTactin column (superflow high capacity resin); at least 2 mg stromal proteins or 24 mg total leaf proteins extracted under non‐denaturing conditions from clpp3‐1 lines with CLPP3‐STREPII or CLPP3S164A‐STREPII; no avidin; elution with 5 mM biotin; SDS‐PAGE, trypsin, LTQ‐Orbitrap MS/MS; four purifications for each line; wt extract as negative control.

The target in experiment [2] is T2, CLPP3‐STREPII (Arabidopsis) (UniProt Q9SXJ6).
T2 sequence: T1 sequence with A94S
Described as above.

The target in experiment [3] is T3, CLPP5‐STREPII (Arabidopsis) (UniProt Q9S834).
T3 sequence: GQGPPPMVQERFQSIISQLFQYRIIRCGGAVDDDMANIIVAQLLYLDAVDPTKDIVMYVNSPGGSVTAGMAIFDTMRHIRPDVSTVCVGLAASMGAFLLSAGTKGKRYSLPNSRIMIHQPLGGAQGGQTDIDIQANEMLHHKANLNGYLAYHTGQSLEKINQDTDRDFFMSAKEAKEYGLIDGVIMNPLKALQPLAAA
Nature of the experiment: affinity purification with mass spectrometry; StrepTactin column (superflow high capacity resin); total soluble leaf proteins extracted under non‐denaturing conditions with avidin (0.2 mg per g leaf tissue) from clpp5‐1 with CLPP5‐STREPII or heterozygous clpp5‐1 with CLPP5S193A‐STREPII; elution with 5 mM biotin; SDS‐PAGE, trypsin, LTQ‐Orbitrap MS/MS; four purifications for each line.

Experiment [4] has as its target T4, CLPP5S193A‐STREPII (Arabidopsis) (UniProt Q9S834).
T4 sequence: T3 sequence with S93A
The description is as above.

Changes are numbered by the printed parent chain. Results are given in words; binding and its absence hold for the method and conditions named. Binding seen in cells or lysates may run through a third protein. A yes stands for co-enrichment or nearness to the bait. Other partners may have been found. No binding means not detected with the bait.

For the molecule CLPC1 (from UniProt Q9FI56 39-929), the binding result in experiment [1], in experiment [2], in experiment [3] and in experiment [4] was “binds” in each case.
Consider HSP70‐1 (from UniProt Q9STW6), for which the binding entry in experiment [3] and in experiment [4] was “binds” each time.

B1: FRUCTOSE‐BISPHOSPHATASE (enzyme, UniProt P25851 60-417)
chain: AVAADAAETKTAARKKSGYELQTLTGWLLRQEMKGEIDAELTIVMSSISLACKQIASLVQRAGISNLTGVQGAVNIQGEDQKKLDVISNEVFSNCLRSSGRTGIIASEEEDVPVAVEESYSGNYVVVFDPLDGSSNIDAAVSTGSIFGIYSPNDECIVDDSDDISALGSEEQRCIVNVCQPGNNLLAAGYCMYSSSVIFVLTLGKGVFSFTLDPMYGEFVLTQENIEIPKAGRIYSFNEGNYQMWDDKLKKYIDDLKDPGPTGKPYSARYIGSLVGDFHRTLLYGGIYGYPRDAKSKNGKLRLLYECAPMSFIVEQAGGKGSDGHSRVLDIQPTEIHQRVPLYIGSTEEVEKLEKYLA
Regarding B1, the binding entry in experiment [4] is “binds”.

B2: CLPT1 (protein, UniProt Q93WL3 65-238)
chain: STVLNVPIAQPENGSSDKIPKWSARAIKSLAMGELEARKLKYPSTGTEAILMGILVEGTSTVAKFLRGNGVTLFKVRDETLSLLGKSDMYFFSPEHPPLTEPAQKAIAWAIDEKNKSDVDGELTTAYLLLGVWSQKDSAGRQILEKLGFNEDKAKEVEKSMNEDVDLSFKKQGQ
Turning to B2, the binding result in experiment [1], in experiment [2], in experiment [3] and in experiment [4] was “binds” in each case.

B3: RUBISCO ACTIVASE (protein, UniProt P10896 59-474)
chain: AVKEDKQTDGDRWRGLAYDTSDDQQDITRGKGMVDSVFQAPMGTGTHHAVLSSYEYVSQGLRQYNLDNMMDGFYIAPAFMDKLVVHITKNFLTLPNIKVPLILGIWGGKGQGKSFQCELVMAKMGINPIMMSAGELESGNAGEPAKLIRQRYREAADLIKKGKMCCLFINDLDAGAGRMGGTTQYTVNNQMVNATLMNIADNPTNVQLPGMYNKEENARVPIICTGNDFSTLYAPLIRDGRMEKFYWAPTREDRIGVCKGIFRTDKIKDEDIVTLVDQFPGQSIDFFGALRARVYDDEVRKFVESLGVEKIGKRLVNSREGPPVFEQPEMTYEKLMEYGNMLVMEQENVKRVQLAETYLSQAALGDANADAIGRGTFYGKGAQQVNLPVPEGCTDPVAENFDPTARSDDGTCVYNF
As to B3, the binding result in experiment [3] and in experiment [4] was “binds” throughout.

B4: CLPS1 (protein, UniProt Q9SX29 45-159)
chain: AALGKGGGVLDKPIIEKTTPGRESEFDLRKSKKIAPPYRVILHNDNFNKREYVVQVLMKVIPGMTVDNAVNIMQEAHINGLAVVIVCAQADAEQHCMQLRGNGLLSSVEPDGGGC
As to B4, the binding result in experiment [1], in experiment [2], in experiment [3] and in experiment [4] was “no binding” throughout.
